In the supplement of paper PMC12425257:
± gives the standard deviation of the averaged measurements. The list shows a part of the results.

System: Madurella mycetomatis MM55
Assay: metabolic activity (growth) relative to DMSO growth control; higher = more fungal growth
Details: 2 µM

Row | SMILES | metabolic activity
1 | CCC(=O)c1c(-c2ccccc2)c2cc(Cl)ccc2c(=O)n1Cc1cc(S(C)(=O)=O)n(CC(N)=O)n1 | 77.2 ± 2.5%
2 | COc1ncccc1-c1cnn2ccc(N3CCN(C(=O)CN(C)C)CC3)nc12 | 78.9 ± 3.4%
3 | Cc1cc(NC(=O)c2cccc(NC(=O)/C=C/CN(C)C)c2)ccc1Nc1nccc(-c2cccnc2)n1 | 53.2 ± 73%
4 | COc1cc2ncn(-c3cc(O[C@H](C)c4ccccc4Cl)c(C(N)=O)s3)c2cc1OC | 87.5 ± 19%
5 | CN1CCN(c2ccc(Nc3ncc4c(=O)n(-c5c(Cl)cncc5Cl)nc(-c5ccccn5)c4n3)cc2)CC1.Cl.Cl | 112 ± 31%
6 | O=C(Nc1n[nH]c2cc(-c3cccc(F)c3)ccc12)C1CC1 | 97.3 ± 22%
7 | CS(=O)(=O)c1ccc(-c2cnc(N)c(C(=O)Nc3ccccc3)n2)cc1 | 112 ± 18%
8 | C[C@@H]1CCN(C(=O)CC#N)C[C@@H]1N(C)c1ncnc2[nH]ccc12 | 98.6 ± 24%
9 | CNS(=O)(=O)c1ccc(N(C)C)c(Nc2ncnc3cc(OC)c(OC)cc23)c1 | 84 ± 17%
10 | CCn1c2cc(Cl)c(F)cc2c(=O)c2c(=O)o[nH]c21 | 91.7 ± 18%
11 | COc1cc(Nc2ccnc3ccc(Br)cc23)cc(OC)c1OC | 115 ± 21%
12 | CC[C@@H]1CO[C@H](C(=O)Nc2ccccc2)CN1c1cc(-c2ccc3c(N)n[nH]c3c2)nc(NC)n1 | 89.9 ± 14%
13 | NC[C@H](NC(=O)c1ccc(-c2ccncc2)cc1)c1ccccc1 | 90.3 ± 15%
14 | Cc1cccc(NC(=O)Nc2ccc(-c3cncc4c3c(N)nn4C)cc2)c1 | 110 ± 14%
15 | Cc1cccc(NC(=O)Nc2ccc(-c3cnc4c(Br)cnn4c3N)cc2)c1 | 109 ± 1.5%
16 | Cc1ccc2c(-c3ccnc(Nc4ccc5c(c4)OCCO5)n3)c(-c3ccc(C(F)(F)F)cc3)nn2n1 | 83.8 ± 29%
17 | CC(C)N1CCN(Cc2cnc(-c3cc(-c4cccc5[nH]ccc45)cc4[nH]ncc34)o2)CC1 | 88.4 ± 17%
18 | COc1cc(Nc2nccc(N3CCC(NC(=O)C4COc5ccccc5O4)C3)n2)cc(OC)c1OC (centres undefined) | 105 ± 10%
19 | CCn1c(-c2nonc2N)nc2ccccc21 | 81.7 ± 15%

Row | SMILES | metabolic activity
20 | COc1cc2ncnc(Nc3ccc(F)c(Cl)c3)c2cc1O[C@H]1CC[C@H](N)CC1 | 89.8 ± 15%
21 | COc1cc(Nc2nccc(N3CCC(NC(=O)Nc4cc(C)ccc4C)C3)n2)cc(OC)c1OC (centres undefined) | 84.2 ± 7.8%
22 | NC(=O)c1c(Nc2ccc(I)cc2F)cc(F)cc1Oc1cccc(NS(N)(=O)=O)c1 | 104 ± 15%
23 | COc1cc2ncnc(Nc3ccc4c(cnn4Cc4ccccc4)c3)c2cc1OC.Cl | 97.9 ± 14%
24 | Nc1n[nH]c2ncc(-c3ccccc3)cc12 | 112.2 ± 0.72%
25 | Cn1cc(-c2ccc3c(c2)CCN3C(=O)Cc2cccc(C(F)(F)F)c2)c2c(N)ncnc21 | 94.8 ± 7.2%
26 | COc1cc2ncn(-c3cc(OCC4CCCO4)c(C(N)=O)s3)c2cc1OC (centres undefined) | 116 ± 21%
27 | Cl.Cl.Cl.NC(Cc1c[nH]c2ccccc12)C(=O)Nc1cncc(C=Cc2ccncc2)c1 (centres undefined) | 115 ± 1.7%
28 | Cc1cc(O)cc(C)c1/C=C/c1cncc(C(N)=O)c1 | 81.8 ± 16%
29 | CN1C(=O)c2sccc2N(C)c2nc(Nc3ccc(S(=O)(=O)NCCCNC(=O)OC(C)(C)C)cc3)ncc21 | 89.2 ± 9.4%
30 | CN(C)CCOc1ccc(-c2nc(-c3ccc4c(c3)CC/C4=N\O)c(-c3ccncc3)[nH]2)cc1 | 76.5 ± 1.2%
31 | Cc1nccc(-c2c(-c3ccc(F)cc3)ncn2CCCN2CCOCC2)n1 | 86.77 ± 0.6%
32 | CCn1c(-c2nonc2N)nc2cncc(CNC3CCNCC3)c21 | 112 ± 21%
33 | COc1ccc2nc(-c3cccc(C)n3)nc(Nc3ccncc3)c2c1 | 118 ± 2.6%
34 | COc1cc(Nc2cnc(C#N)c(O[C@H](C)CN(C)C)n2)ncc1-c1cnn(C)c1 | 73.3 ± 9.8%
35 | CCNc1n[nH]c2ccc(C3C(C#N)=C(C)NC(C)=C3C#N)cc12 | 85.3 ± 12%
36 | O=C1Nc2ccccc2SC1=Cc1c[nH]c2cc(OCCN3CCOCC3)ccc12 | 119 ± 4%
37 | CCN(CC)S(=O)(=O)c1cc(Nc2nccc(-c3ccnc(-c4ccc(NC(=O)NC)cc4)c3)n2)ccc1Cl | 105 ± 7%

Same assay, conditions: 10 µM

Row | SMILES | metabolic activity
38 | CCC(=O)c1c(-c2ccccc2)c2cc(Cl)ccc2c(=O)n1Cc1cc(S(C)(=O)=O)n(CC(N)=O)n1 | 113 ± 11%
39 | COc1ncccc1-c1cnn2ccc(N3CCN(C(=O)CN(C)C)CC3)nc12 | 113 ± 2.6%
40 | Cc1cc(NC(=O)c2cccc(NC(=O)/C=C/CN(C)C)c2)ccc1Nc1nccc(-c2cccnc2)n1 | 100 ± 37%
41 | COc1cc2ncn(-c3cc(O[C@H](C)c4ccccc4Cl)c(C(N)=O)s3)c2cc1OC | 55.9 ± 44%
42 | CN1CCN(c2ccc(Nc3ncc4c(=O)n(-c5c(Cl)cncc5Cl)nc(-c5ccccn5)c4n3)cc2)CC1.Cl.Cl | 99.5 ± 24%
43 | O=C(Nc1n[nH]c2cc(-c3cccc(F)c3)ccc12)C1CC1 | 117 ± 4.2%
44 | CS(=O)(=O)c1ccc(-c2cnc(N)c(C(=O)Nc3ccccc3)n2)cc1 | 96.5 ± 5.2%
45 | C[C@@H]1CCN(C(=O)CC#N)C[C@@H]1N(C)c1ncnc2[nH]ccc12 | 95.6 ± 31%
46 | CNS(=O)(=O)c1ccc(N(C)C)c(Nc2ncnc3cc(OC)c(OC)cc23)c1 | 77 ± 11%
47 | CCn1c2cc(Cl)c(F)cc2c(=O)c2c(=O)o[nH]c21 | 86.1 ± 18%
48 | COc1cc(Nc2ccnc3ccc(Br)cc23)cc(OC)c1OC | 124 ± 13%
49 | CC[C@@H]1CO[C@H](C(=O)Nc2ccccc2)CN1c1cc(-c2ccc3c(N)n[nH]c3c2)nc(NC)n1 | 108 ± 6.1%
50 | NC[C@H](NC(=O)c1ccc(-c2ccncc2)cc1)c1ccccc1 | 117 ± 37%
51 | Cc1cccc(NC(=O)Nc2ccc(-c3cncc4c3c(N)nn4C)cc2)c1 | 110 ± 0.93%
52 | Cc1cccc(NC(=O)Nc2ccc(-c3cnc4c(Br)cnn4c3N)cc2)c1 | 97.7 ± 3.8%
53 | Cc1ccc2c(-c3ccnc(Nc4ccc5c(c4)OCCO5)n3)c(-c3ccc(C(F)(F)F)cc3)nn2n1 | 99 ± 26%
54 | CC(C)N1CCN(Cc2cnc(-c3cc(-c4cccc5[nH]ccc45)cc4[nH]ncc34)o2)CC1 | 120 ± 24%
55 | COc1cc(Nc2nccc(N3CCC(NC(=O)C4COc5ccccc5O4)C3)n2)cc(OC)c1OC (centres undefined) | 112 ± 9.8%
56 | CCn1c(-c2nonc2N)nc2ccccc21 | 95.8 ± 14%

Row | SMILES | metabolic activity
57 | COc1cc2ncnc(Nc3ccc(F)c(Cl)c3)c2cc1O[C@H]1CC[C@H](N)CC1 | 99.8 ± 13%
58 | COc1cc(Nc2nccc(N3CCC(NC(=O)Nc4cc(C)ccc4C)C3)n2)cc(OC)c1OC (centres undefined) | 112 ± 7.4%
59 | NC(=O)c1c(Nc2ccc(I)cc2F)cc(F)cc1Oc1cccc(NS(N)(=O)=O)c1 | 107 ± 57%
60 | COc1cc2ncnc(Nc3ccc4c(cnn4Cc4ccccc4)c3)c2cc1OC.Cl | 89.5 ± 4.2%
61 | Nc1n[nH]c2ncc(-c3ccccc3)cc12 | 104 ± 13%
62 | Cn1cc(-c2ccc3c(c2)CCN3C(=O)Cc2cccc(C(F)(F)F)c2)c2c(N)ncnc21 | 87.2 ± 24%
63 | COc1cc2ncn(-c3cc(OCC4CCCO4)c(C(N)=O)s3)c2cc1OC (centres undefined) | 96 ± 27%
64 | Cl.Cl.Cl.NC(Cc1c[nH]c2ccccc12)C(=O)Nc1cncc(C=Cc2ccncc2)c1 (centres undefined) | 97.7 ± 23%
65 | Cc1cc(O)cc(C)c1/C=C/c1cncc(C(N)=O)c1 | 104 ± 1.9%
66 | CN1C(=O)c2sccc2N(C)c2nc(Nc3ccc(S(=O)(=O)NCCCNC(=O)OC(C)(C)C)cc3)ncc21 | 102 ± 11%
67 | CN(C)CCOc1ccc(-c2nc(-c3ccc4c(c3)CC/C4=N\O)c(-c3ccncc3)[nH]2)cc1 | 111 ± 58%
68 | Cc1nccc(-c2c(-c3ccc(F)cc3)ncn2CCCN2CCOCC2)n1 | 87.1 ± 12%
69 | CCn1c(-c2nonc2N)nc2cncc(CNC3CCNCC3)c21 | 154 ± 43%
70 | COc1ccc2nc(-c3cccc(C)n3)nc(Nc3ccncc3)c2c1 | 90.6 ± 20%
71 | COc1cc(Nc2cnc(C#N)c(O[C@H](C)CN(C)C)n2)ncc1-c1cnn(C)c1 | 124 ± 3.9%
72 | CCNc1n[nH]c2ccc(C3C(C#N)=C(C)NC(C)=C3C#N)cc12 | 79.1 ± 28%
73 | O=C1Nc2ccccc2SC1=Cc1c[nH]c2cc(OCCN3CCOCC3)ccc12 | 107 ± 7.3%
74 | CCN(CC)S(=O)(=O)c1cc(Nc2nccc(-c3ccnc(-c4ccc(NC(=O)NC)cc4)c3)n2)ccc1Cl | 97.3 ± 11%
